Results on two substances are retold here after patent US20090298769A1.

By UniProt entry, the sequences of proteins in these tests, tags left out. Where a name states a change or a piece, a line headed by the entry shows the natural chain unless it says otherwise. Residues count along the entry.
UniProt P06756: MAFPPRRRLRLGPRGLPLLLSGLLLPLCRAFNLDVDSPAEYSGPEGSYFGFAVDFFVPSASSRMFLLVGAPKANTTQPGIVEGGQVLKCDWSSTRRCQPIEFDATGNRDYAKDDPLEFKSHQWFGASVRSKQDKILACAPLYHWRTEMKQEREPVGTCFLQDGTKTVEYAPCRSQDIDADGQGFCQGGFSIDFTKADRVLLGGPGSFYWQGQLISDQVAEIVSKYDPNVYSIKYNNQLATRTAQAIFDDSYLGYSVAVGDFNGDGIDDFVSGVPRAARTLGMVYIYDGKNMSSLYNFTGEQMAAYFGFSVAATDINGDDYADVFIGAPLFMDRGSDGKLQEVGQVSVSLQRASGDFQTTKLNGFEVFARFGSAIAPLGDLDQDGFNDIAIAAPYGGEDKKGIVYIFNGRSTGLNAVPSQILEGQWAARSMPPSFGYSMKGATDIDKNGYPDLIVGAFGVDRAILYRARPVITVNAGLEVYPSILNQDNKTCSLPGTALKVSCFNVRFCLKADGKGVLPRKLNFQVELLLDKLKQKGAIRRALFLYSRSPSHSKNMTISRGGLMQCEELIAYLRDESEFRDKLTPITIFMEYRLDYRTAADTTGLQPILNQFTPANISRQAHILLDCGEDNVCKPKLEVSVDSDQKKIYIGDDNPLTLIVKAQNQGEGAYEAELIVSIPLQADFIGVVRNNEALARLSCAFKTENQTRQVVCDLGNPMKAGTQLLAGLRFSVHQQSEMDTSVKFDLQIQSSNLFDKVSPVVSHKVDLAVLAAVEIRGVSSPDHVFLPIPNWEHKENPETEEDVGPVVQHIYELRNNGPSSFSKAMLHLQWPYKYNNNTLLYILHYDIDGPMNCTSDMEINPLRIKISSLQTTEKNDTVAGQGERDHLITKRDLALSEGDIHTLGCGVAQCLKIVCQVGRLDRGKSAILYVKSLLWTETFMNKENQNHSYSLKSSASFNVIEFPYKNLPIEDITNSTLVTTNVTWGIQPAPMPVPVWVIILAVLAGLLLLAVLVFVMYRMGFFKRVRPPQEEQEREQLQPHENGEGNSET
UniProt P05106: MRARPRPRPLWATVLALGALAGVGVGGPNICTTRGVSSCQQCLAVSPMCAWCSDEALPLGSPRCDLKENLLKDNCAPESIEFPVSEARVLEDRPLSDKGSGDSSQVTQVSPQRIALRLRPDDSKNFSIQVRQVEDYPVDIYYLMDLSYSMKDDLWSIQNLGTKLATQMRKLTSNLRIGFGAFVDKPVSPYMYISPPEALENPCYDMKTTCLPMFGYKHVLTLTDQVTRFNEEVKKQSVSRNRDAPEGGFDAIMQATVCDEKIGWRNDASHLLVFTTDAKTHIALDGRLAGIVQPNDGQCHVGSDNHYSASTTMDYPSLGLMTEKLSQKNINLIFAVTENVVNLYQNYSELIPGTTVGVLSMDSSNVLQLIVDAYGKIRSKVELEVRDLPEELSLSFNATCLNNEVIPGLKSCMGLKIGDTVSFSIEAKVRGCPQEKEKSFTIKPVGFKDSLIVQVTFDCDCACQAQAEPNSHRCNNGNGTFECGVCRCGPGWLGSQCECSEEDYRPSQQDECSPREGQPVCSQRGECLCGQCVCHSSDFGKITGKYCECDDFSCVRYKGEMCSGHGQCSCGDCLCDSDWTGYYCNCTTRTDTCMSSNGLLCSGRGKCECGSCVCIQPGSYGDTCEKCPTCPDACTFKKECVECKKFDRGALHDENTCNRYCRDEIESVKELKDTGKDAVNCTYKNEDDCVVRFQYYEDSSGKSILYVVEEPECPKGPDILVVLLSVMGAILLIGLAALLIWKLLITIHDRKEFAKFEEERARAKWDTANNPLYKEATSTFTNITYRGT
UniProt P35918, residues 20-1345: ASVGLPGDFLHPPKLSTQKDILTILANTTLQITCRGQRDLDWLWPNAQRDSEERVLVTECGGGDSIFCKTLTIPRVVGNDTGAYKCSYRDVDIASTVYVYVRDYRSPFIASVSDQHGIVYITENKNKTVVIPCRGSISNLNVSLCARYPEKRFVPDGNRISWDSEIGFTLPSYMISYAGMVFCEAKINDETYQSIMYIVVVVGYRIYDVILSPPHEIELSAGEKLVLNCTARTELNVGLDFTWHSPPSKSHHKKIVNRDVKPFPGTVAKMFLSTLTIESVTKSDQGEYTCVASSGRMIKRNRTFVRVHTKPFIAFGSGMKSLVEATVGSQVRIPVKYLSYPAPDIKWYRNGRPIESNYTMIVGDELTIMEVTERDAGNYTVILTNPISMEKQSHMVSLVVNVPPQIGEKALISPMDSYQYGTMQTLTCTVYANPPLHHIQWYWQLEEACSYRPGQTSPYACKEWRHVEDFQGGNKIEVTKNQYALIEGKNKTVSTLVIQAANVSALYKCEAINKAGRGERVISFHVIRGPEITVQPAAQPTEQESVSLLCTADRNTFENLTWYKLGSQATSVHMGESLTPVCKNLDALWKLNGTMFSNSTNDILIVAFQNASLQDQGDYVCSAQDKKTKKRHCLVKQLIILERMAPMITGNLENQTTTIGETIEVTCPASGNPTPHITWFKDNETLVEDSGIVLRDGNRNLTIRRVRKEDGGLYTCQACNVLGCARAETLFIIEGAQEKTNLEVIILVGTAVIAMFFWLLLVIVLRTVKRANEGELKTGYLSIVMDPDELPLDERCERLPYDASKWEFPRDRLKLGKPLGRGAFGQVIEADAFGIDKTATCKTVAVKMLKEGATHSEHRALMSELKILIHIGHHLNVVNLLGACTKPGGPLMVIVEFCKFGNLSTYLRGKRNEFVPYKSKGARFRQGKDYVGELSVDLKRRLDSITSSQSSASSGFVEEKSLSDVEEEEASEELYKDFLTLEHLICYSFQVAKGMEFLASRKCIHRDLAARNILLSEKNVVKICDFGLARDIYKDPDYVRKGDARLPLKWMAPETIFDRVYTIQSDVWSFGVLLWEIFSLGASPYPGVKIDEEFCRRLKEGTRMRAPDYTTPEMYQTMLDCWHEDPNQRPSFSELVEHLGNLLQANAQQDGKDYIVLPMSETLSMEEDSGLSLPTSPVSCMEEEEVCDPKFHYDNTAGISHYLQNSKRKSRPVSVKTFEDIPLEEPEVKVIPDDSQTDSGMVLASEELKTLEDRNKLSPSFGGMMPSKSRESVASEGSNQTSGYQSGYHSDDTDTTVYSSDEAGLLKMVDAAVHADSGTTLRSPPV
UniProt P35968, residues 20-1356: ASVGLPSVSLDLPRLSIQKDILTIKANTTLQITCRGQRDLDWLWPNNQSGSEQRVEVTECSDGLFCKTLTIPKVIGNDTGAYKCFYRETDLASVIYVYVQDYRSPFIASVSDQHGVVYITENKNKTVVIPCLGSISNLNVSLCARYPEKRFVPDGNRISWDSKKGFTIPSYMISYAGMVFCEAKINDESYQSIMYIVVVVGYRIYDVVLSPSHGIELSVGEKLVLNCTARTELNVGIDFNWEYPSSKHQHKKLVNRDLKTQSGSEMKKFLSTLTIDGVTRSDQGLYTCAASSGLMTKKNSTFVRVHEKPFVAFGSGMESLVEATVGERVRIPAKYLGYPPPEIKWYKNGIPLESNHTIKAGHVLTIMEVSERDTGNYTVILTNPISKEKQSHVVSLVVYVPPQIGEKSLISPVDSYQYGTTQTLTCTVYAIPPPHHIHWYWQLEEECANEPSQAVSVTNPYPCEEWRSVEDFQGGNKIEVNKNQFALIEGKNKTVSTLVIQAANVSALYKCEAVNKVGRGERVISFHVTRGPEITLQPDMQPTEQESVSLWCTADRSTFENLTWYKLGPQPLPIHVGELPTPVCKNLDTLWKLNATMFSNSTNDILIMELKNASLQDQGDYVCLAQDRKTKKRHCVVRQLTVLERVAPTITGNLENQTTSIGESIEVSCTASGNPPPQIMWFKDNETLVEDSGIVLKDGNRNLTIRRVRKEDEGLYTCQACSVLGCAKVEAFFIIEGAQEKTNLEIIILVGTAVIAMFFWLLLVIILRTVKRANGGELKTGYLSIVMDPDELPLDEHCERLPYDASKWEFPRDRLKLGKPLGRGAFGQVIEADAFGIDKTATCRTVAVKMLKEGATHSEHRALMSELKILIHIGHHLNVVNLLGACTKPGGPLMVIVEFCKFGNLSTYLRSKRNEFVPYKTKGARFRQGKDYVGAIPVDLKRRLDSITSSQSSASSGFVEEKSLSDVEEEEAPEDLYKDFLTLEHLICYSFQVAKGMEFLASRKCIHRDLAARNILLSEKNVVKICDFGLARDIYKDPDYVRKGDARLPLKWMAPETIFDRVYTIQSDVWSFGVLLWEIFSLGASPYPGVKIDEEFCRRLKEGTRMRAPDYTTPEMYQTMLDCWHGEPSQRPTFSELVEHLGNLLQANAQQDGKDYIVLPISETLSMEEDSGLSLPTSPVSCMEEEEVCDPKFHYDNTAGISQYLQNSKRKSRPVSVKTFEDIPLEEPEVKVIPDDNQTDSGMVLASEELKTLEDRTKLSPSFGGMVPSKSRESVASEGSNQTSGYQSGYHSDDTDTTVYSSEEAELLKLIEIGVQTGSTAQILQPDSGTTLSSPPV
UniProt P43406: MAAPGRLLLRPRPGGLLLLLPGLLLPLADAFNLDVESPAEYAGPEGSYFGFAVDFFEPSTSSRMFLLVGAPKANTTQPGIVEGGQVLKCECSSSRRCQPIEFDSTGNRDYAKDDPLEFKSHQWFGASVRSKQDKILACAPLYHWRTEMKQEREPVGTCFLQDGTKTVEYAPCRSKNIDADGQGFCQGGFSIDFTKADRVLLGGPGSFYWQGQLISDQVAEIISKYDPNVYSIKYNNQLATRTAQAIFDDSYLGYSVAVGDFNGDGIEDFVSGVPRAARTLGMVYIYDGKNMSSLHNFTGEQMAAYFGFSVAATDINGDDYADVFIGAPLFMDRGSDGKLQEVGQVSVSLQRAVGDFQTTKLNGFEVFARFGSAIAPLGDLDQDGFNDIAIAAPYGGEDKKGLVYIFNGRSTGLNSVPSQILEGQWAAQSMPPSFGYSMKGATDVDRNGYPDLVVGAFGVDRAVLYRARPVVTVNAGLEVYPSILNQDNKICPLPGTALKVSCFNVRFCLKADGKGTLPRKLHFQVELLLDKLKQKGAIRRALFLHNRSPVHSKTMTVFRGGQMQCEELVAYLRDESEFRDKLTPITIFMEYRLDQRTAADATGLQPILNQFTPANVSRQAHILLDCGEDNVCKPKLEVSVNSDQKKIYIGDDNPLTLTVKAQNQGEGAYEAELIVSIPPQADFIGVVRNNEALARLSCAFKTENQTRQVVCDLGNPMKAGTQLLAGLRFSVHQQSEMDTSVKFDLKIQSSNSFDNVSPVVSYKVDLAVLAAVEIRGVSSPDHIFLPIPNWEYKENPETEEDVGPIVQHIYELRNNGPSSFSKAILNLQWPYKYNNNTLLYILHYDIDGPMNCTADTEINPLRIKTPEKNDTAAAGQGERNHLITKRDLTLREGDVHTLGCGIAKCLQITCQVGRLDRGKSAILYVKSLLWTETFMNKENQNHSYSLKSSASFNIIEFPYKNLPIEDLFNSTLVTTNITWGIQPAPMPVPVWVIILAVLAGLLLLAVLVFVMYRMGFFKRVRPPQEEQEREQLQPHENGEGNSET

For test [1], the target named is T1, αvβ3 integrin on human endothelial cells (HUVEC; vessels of human prostate tissue) (human) (UniProt P06756+P05106). As to the kind of experiment: co-immunoprecipitation (anti-VEGFR-2 IP, anti-integrin β3 blot), HUVEC with VEGF.
The target of test [2] is T1, αvβ3 integrin on human endothelial cells (HUVEC; vessels of human prostate tissue) (human). As to the kind of experiment: discussion of Example 5 (co-immunoprecipitation).
Test [3] concerns the target VEGFR-2 of mouse lung endothelial cells (mouse) (UniProt P35918). As to the kind of experiment: co-immunoprecipitation (anti-β3 IP, anti-VEGF receptor blot).
Test [4] has the same target. As to the kind of experiment: co-immunoprecipitation (anti-β3 IP, anti-VEGFR-2 blot), WT mouse lung EC.
Test [5] has the same target. As to the kind of experiment: co-immunoprecipitation (anti-β3 IP, anti-VEGFR-2 blot), wild type mouse lung EC on vitronectin.

No constants are given. Whether binding was seen depends on the method and setting. Binding seen in cells or lysates may run through a third protein. Some binding calls cover weakened binding; strength is not graded here.

In the case of “VEGFR-2 of human endothelial cells (HUVEC) (from UniProt P35968 20-1356) (receptor)”, the binding result in test [1] and in test [2] was “binds” each time.

As to “αvβ3 integrin, wild type, on mouse lung endothelial cells (from UniProt P43406 31-1044; O54890 26-787) (receptor)”, the binding result in test [3], in test [4] and in test [5] was “binds” throughout.
